{"sequences": {"note": "Protein sequences, listed by entry. Tags and fused reporters are not part of them.", "UniProt Q12888": "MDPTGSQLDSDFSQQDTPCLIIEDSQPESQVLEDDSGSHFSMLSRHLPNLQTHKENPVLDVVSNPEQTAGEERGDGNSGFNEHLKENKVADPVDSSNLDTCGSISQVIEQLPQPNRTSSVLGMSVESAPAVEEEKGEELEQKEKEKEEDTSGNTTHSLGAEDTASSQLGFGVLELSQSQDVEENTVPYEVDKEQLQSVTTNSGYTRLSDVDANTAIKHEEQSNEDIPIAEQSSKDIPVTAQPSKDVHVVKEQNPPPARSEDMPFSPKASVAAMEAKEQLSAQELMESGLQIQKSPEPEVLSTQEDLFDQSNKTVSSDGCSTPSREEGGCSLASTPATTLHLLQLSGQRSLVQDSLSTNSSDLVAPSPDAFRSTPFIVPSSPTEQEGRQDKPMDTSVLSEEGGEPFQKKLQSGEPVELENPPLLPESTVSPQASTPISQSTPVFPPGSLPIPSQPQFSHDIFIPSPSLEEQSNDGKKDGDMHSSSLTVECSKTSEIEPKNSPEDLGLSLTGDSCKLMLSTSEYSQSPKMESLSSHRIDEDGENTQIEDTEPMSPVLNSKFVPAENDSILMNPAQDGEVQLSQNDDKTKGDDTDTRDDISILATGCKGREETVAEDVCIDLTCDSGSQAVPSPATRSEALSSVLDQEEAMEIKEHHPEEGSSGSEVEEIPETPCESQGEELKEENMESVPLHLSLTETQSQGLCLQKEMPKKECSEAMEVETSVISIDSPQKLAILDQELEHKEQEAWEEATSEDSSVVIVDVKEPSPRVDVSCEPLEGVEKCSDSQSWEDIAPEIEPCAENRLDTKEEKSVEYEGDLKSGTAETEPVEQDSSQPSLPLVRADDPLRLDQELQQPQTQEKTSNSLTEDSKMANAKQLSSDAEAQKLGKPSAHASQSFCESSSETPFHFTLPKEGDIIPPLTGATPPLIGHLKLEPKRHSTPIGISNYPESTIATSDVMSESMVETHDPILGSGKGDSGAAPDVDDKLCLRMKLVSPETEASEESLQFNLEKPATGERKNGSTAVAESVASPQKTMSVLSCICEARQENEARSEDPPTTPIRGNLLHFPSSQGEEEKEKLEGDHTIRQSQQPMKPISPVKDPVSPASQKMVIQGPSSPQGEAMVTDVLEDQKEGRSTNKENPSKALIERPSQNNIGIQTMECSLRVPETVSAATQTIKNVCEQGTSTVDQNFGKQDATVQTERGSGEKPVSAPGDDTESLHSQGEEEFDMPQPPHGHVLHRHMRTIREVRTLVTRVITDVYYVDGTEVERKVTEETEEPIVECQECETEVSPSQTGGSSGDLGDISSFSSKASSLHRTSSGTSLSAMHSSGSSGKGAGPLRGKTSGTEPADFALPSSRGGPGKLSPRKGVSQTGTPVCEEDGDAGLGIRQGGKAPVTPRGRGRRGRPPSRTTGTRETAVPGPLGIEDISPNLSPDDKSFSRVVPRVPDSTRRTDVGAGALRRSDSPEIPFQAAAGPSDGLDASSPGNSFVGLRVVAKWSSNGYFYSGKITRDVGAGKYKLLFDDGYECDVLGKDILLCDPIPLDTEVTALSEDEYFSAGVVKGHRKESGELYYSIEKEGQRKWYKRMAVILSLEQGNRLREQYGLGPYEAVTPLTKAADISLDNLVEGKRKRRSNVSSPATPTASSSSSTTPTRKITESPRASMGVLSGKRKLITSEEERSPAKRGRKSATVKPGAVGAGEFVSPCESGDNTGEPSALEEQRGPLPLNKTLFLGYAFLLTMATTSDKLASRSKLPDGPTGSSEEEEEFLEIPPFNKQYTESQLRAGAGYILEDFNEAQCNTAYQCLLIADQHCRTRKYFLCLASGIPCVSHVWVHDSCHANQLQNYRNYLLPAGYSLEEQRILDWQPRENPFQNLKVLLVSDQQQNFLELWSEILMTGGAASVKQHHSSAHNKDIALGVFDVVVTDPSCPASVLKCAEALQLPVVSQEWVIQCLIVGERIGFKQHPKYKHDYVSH"}, "source": "paper PMC5564716", "biological_target": "tumor suppressor p53-binding protein 1 (53BP1), endogenous (human (endogenous in U2OS)) (UniProt Q12888)", "assay": "affinity purification with mass spectrometry; 53BP1 co-IP complex from human cells after nocodazole (NOC) synchronization, mass spectroscopy screening", "note": "Results are given in words; binding and its absence hold for the method and conditions named. In cells and extracts the contact can be indirect. Here binding means that the protein was enriched with, or labelled near, the bait; the list need not be complete.", "data": [{"binder": "mitotic centromere-associated kinesin (MCAK), endogenous (protein, UniProt Q99661 1-725) MAMDSSLQARLFPGLAIKIQRSNGLIHSANVRTVNLEKSCVSVEWAEGGATKGKEIDFDDVAAINPELLQLLPLHPKDNLPLQENVTIQKQKRRSVNSKIPAPKESLRSRSTRMSTVSELRITAQENDMEVELPAAANSRKQFSVPPAPTRPSCPAVAEIPLRMVSEEMEEQVHSIRGSSSANPVNSVRRKSCLVKEVEKMKNKREEKKAQNSEMRMKRAQEYDSSFPNWEFARMIKEFRATLECHPLTMTDPIEEHRICVCVRKRPLNKQELAKKEIDVISIPSKCLLLVHEPKLKVDLTKYLENQAFCFDFAFDETASNEVVYRFTARPLVQTIFEGGKATCFAYGQTGSGKTHTMGGDLSGKAQNASKGIYAMASRDVFLLKNQPCYRKLGLEVYVTFFEIYNGKLFDLLNKKAKLRVLEDGKQQVQVVGLQEHLVNSADDVIKMIDMGSACRTSGQTFANSNSSRSHACFQIILRAKGRMHGKFSLVDLAGNERGADTSSADRQTRMEGAEINKSLLALKECIRALGQNKAHTPFRESKLTQVLRDSFIGENSRTCMIATISPGISSCEYTLNTLRYADRVKELSPHSGPSGEQLIQMETEEMEACSNGALIPGNLSKEEEELSSQMSSFNEAMTQIRELEEKAMEELKEIIQQGPDWLELSEMTEQPDYDLETFVNKAESALAQQAKHFSALRDVIKALRLAMQLEEQASRQISSKKRPQ", "values": [{"measurement": "binding", "value": "binds"}]}]}
